In patent US20220396840A1, “IRON-SCORE AND IN VITRO METHOD FOR IDENTIFYING MANTLE CELL LYMPHOMA (MCL) SUBJECTS AND THERAPEUTIC USES AND METHODS” (priority 2019, published 2022):
For at least one compound, name, drawing or mass did not settle the structure.

System: Jeko-1 and JVM-2 MCL cell lines
Details: deferasirox 80 μM, Ironomycin 50 nM and 500 nM, 72H
Procedure: Jeko-1 and JVM2 cell line was pre-incubated with or without 80 μM of deferasirox or 50 nM and 500 nM of Ironomycin, respectively, for 4 hours followed by 72H incubation in presence or absence of FeCl3 (100 μM). Apoptosis was assessed using Annexin V-PE staining by flow cytometry.
AnnexinV-PE staining for apoptosis analysis was performed using the “PE Annexin V Apoptosis Detection Kit I” (559763, Becton Dickinson).
The inventors further investigated the effect of Iron supplementation on the cell death induced by these treatments. Iron chelator (Deferasirox) concentrations were chosen according the maximal plasmatic concentration achievable in the patient (Nisbet-Brown et al., 2003).

With `O=C(O)c1ccc(-n2nc(-c3ccccc3O)nc2-c2ccccc2O)cc1` [Deferasirox, reference compound] the “apoptosis monitored by Annexin V staining” value was “induces apoptosis”.
